# Values quoted from earlier work as cited in patent US8084219B2, “Methods for detecting and analyzing N-glycolylneuraminic acid (Neu5Gc) in biological materials” (The Regents of the University of California, priority 2003, dated 2011).
# Details: HPLC peaks, cited from earlier work
compound,measurement,setting,value
"O=C(CO)N[C@H]1[C@H]([C@H](O)[C@H](O)CO)OC(O)(C(=O)O)C[C@@H]1O (stereo partly drawn) [Neu5Gc, N-glycolylneuraminic acid]",Neu5Gc as share of total Sias,normal adult human heart,~2%
same,Neu5Gc as share of total Sias,"normal adult human liver, skin and kidney",< 1%
same,Neu5Gc as share of total Sias,normal adult human spleen and testes,~1%

# Where two headings read alike, the source gives them in different places.
